Data published in the supplement of paper PMC10849652.
The other results are listed elsewhere or left out.

The chains behind the UniProt entries cited, without tags or fusion partners. Where a name states a change or a piece, a line headed by the entry shows the natural chain unless it says otherwise.
UniProt P26038, whole entry, looked up: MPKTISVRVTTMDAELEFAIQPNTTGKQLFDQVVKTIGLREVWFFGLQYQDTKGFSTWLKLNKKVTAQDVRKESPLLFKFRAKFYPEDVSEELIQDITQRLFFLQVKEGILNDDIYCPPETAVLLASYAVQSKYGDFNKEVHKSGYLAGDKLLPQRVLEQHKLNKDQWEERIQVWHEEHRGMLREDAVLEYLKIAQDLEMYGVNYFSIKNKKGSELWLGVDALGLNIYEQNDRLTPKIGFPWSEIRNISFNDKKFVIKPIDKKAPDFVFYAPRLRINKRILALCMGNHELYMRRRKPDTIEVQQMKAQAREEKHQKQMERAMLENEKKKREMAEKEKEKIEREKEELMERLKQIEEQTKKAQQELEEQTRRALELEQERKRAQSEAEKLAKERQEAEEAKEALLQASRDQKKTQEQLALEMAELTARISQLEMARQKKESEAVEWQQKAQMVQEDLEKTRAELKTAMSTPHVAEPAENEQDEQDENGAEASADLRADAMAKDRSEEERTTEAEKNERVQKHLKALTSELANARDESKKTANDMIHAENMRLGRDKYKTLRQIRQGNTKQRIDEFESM
UniProt Q99707: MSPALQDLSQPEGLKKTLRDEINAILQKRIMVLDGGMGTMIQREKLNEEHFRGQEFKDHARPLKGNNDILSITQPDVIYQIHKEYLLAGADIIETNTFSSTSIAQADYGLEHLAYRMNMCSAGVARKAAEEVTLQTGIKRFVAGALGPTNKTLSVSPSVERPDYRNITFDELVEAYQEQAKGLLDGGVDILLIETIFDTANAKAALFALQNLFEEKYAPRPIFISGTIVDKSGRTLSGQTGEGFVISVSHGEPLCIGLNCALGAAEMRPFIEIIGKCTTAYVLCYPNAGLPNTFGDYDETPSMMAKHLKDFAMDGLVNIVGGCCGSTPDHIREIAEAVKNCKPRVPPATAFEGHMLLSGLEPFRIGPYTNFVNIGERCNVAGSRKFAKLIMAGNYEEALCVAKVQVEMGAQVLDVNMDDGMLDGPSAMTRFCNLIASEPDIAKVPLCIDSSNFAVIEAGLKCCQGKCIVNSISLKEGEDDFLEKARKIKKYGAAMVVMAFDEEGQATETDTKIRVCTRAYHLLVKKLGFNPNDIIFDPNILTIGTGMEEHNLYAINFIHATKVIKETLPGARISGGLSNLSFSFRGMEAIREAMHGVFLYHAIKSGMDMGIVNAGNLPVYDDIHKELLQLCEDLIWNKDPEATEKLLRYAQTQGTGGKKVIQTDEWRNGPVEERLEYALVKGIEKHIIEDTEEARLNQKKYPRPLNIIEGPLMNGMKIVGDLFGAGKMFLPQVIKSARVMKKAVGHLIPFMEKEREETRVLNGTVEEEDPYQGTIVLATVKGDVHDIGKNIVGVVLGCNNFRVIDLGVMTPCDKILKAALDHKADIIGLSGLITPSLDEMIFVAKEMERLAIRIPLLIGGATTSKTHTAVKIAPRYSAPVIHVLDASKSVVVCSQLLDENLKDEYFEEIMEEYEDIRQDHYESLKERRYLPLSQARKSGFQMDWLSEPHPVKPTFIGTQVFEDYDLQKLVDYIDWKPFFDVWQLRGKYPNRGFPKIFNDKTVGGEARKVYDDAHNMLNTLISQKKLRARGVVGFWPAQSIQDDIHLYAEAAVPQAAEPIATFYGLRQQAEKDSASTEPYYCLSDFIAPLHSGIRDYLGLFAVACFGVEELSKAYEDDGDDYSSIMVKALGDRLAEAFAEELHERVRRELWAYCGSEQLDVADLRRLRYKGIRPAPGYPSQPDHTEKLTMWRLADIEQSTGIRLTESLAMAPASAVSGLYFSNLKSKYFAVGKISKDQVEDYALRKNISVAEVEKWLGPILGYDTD
UniProt P13995: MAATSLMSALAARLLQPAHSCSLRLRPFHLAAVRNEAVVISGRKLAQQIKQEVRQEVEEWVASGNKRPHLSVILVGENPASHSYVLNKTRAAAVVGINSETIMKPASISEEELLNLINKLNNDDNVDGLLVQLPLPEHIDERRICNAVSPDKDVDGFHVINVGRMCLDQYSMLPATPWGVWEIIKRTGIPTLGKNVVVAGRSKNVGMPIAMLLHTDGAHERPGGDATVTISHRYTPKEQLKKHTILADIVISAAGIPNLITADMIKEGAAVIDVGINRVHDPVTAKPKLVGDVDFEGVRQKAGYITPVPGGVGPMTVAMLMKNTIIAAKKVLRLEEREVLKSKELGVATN
UniProt Q6P444: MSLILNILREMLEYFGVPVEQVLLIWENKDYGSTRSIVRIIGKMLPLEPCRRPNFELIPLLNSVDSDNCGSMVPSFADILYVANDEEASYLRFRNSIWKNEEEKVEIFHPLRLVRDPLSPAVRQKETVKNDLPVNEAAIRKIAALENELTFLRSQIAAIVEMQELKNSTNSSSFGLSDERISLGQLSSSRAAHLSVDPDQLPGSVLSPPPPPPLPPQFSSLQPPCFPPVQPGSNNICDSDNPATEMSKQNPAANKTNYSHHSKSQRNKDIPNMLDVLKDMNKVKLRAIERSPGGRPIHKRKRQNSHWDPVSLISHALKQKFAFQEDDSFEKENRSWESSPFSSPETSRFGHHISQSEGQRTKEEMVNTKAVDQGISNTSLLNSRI
UniProt P00846: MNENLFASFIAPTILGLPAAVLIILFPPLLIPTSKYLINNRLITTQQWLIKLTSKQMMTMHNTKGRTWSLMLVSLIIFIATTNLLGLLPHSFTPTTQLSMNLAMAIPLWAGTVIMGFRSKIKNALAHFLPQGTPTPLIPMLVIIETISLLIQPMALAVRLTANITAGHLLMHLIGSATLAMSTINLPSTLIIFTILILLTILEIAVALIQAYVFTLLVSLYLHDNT
UniProt O94776: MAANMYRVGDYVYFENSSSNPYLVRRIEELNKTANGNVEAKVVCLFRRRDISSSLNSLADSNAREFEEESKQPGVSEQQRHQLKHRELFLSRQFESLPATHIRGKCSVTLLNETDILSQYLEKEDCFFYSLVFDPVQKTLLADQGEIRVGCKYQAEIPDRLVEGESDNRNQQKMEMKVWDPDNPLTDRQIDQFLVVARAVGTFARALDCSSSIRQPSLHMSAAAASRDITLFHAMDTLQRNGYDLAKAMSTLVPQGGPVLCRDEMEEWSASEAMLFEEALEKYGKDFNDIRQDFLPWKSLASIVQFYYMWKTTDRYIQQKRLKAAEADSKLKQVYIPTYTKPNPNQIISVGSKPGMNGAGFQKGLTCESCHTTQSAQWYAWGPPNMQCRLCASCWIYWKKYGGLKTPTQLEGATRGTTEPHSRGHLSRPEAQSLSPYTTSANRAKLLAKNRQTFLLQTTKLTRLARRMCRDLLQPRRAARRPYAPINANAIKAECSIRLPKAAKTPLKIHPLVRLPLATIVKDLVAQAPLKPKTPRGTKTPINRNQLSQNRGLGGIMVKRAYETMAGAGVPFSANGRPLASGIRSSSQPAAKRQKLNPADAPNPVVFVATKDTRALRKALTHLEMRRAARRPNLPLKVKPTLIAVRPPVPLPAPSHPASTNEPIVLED
UniProt Q9NZJ7, whole entry, looked up: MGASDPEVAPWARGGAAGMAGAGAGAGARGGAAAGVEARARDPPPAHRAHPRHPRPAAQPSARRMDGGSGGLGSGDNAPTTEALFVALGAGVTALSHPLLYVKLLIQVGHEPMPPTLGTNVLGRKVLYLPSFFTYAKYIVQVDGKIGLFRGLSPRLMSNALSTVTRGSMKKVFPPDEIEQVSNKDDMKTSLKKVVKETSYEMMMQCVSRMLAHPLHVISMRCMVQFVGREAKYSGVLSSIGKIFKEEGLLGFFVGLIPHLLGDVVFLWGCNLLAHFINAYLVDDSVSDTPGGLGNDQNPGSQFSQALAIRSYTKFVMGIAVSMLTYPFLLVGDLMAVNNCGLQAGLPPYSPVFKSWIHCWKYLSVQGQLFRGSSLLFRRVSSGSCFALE
UniProt Q13505: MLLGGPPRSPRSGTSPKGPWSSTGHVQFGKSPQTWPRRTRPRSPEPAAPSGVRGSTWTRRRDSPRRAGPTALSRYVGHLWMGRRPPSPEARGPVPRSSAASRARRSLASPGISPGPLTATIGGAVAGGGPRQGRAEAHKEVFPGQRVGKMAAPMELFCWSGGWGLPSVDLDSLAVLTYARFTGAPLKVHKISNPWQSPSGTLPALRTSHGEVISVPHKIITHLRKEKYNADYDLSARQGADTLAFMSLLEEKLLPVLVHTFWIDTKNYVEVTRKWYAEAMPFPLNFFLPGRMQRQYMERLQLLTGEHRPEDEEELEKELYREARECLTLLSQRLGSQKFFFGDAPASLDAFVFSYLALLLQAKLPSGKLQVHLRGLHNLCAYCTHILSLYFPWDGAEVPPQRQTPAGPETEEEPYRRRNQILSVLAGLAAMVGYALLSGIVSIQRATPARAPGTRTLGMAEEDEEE

compound: CN1CC[C@H](c2c(O)cc(O)c3c(=O)cc(-c4ccccc4Cl)oc23)[C@H](O)C1 [alvocidib]; assay: log2 fold change, soluble protein after heating vs DMSO (PISA); higher = thermal stabilisation; K562 lysate, 10 uM; active = over 0.2 and 3.5 SD of the protein, either way, in both replicates (recomputed)
Outline: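 The values are log-two fold changes in thermal stability compared with solvent controls and come from duplicates. They were obtained by TMTpro 16plex LC-MS/MS, with channel sums equalised, on the supernatant after 21,000xg for 90 min. That supernatant came from crude K562 extract at 1 mg/mL protein treated with 10 μM compound for 30 min, heated for 3 min across 48°C-58°C, pooled and brought to 0.5% NP-40 at 4°C.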

log2 fold change, inactive:
MSN (UniProt P26038) 0
MRPS28 (UniProt Q9Y2Q9) 0.038
MTR (UniProt Q99707) 0.001
MTHFD2 (UniProt P13995) -0.037
MRPS31 (UniProt Q92665) -0.023
MTFR2 (UniProt Q6P444) 0.067
MRPL40 (UniProt Q9NQ50) 0.122
MRPL54 (UniProt Q6P161) 0.001
MRPL44 (UniProt Q9H9J2) -0.032
MT-ATP6 (UniProt P00846) -0.017
MT-CO1 (UniProt P00395) 0.069
MRPL58 (UniProt Q14197) 0
MTA2 (UniProt O94776) 0.005
MTCH1 (UniProt Q9NZJ7) -0.055
MTX1 (UniProt Q13505) -0.008
